From article PMC9587286 come the findings set out here.

Amino acid sequences for entries named in this document (tags omitted).
UniProt Q9UBN7: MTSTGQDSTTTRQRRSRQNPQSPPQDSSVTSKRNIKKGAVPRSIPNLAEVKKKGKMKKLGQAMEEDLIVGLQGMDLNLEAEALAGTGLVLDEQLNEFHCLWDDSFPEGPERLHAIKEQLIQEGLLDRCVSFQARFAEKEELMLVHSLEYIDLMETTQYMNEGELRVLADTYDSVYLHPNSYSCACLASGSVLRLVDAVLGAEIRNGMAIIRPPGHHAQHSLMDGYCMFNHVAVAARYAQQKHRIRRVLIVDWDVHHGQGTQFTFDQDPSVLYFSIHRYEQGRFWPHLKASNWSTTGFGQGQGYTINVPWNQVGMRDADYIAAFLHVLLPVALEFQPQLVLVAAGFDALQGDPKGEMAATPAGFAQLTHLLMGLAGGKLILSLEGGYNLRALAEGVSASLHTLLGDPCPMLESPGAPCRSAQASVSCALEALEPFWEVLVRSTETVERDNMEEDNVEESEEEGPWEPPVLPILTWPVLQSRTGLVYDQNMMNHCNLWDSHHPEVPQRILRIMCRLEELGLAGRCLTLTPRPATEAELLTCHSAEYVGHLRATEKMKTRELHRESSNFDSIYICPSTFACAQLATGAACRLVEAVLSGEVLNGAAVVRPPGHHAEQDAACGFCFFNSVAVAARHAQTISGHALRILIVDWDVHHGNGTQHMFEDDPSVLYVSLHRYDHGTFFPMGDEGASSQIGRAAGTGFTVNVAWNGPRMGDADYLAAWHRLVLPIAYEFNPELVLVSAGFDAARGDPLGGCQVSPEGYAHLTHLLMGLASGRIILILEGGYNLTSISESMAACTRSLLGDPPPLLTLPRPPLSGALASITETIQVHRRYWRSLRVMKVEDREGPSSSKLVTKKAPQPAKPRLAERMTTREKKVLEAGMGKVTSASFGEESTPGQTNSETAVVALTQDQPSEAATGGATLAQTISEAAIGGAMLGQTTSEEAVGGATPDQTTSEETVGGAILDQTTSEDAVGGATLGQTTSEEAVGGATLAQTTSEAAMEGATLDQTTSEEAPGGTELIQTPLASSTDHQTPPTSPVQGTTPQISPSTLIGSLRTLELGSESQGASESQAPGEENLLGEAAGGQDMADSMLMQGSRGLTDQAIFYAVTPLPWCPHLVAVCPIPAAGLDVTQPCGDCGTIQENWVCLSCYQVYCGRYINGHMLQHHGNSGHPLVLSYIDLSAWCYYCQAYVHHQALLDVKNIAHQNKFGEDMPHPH

The target of this assay is HDAC6 overexpressed in HCT116 cells (bait of the mass spectrometry) (UniProt Q9UBN7). The experiment in a line: affinity purification with mass spectrometry; HCT116 cells overexpressing HDAC6 against a control group; proteins that interact with HDAC6 detected by protein mass spectrometry.

These are yes or no findings as the source states them, for the method shown. In cells and extracts the contact can be indirect. A yes stands for co-enrichment or nearness to the bait. Other partners may have been found.

B1: TAK1, endogenous in HCT116 cells (enzyme, UniProt O43318 1-606)
chain: MSTASAASSSSSSSAGEMIEAPSQVLNFEEIDYKEIEVEEVVGRGAFGVVCKAKWRAKDVAIKQIESESERKAFIVELRQLSRVNHPNIVKLYGACLNPVCLVMEYAEGGSLYNVLHGAEPLPYYTAAHAMSWCLQCSQGVAYLHSMQPKALIHRDLKPPNLLLVAGGTVLKICDFGTACDIQTHMTNNKGSAAWMAPEVFEGSNYSEKCDVFSWGIILWEVITRRKPFDEIGGPAFRIMWAVHNGTRPPLIKNLPKPIESLMTRCWSKDPSQRPSMEEIVKIMTHLMRYFPGADEPLQYPCQYSDEGQSNSATSTGSFMDIASTNTSNKSDTNMEQVPATNDTIKRLESKLLKNQAKQQSESGRLSLGASRGSSVESLPPTSEGKRMSADMSEIEARIAATTAYSKPKRGHRKTASFGNILDVPEIVISGNGQPRRRSIQDLTVTGTEPGQVSSRSSSPSVRMITTSGPTSEKPTRSHPWTPDDSTDTNGSDNSIPMAYLTLDHQLQPLAPCPNSKESMAVFEQHCKMAQEYMKVQTEIALLLQRKQELVAELDQDEKDQQNTSRLVQEHKKLLDENKSLSTYYQQCKKQLEVIRSQQQKRQGTS
As for B1, the binding entry is “binds”.
